Data taken from PMC9159911.
No constants are given. Whether binding was seen depends on the method and setting.

Target: outer membrane protein A (OmpA) of Aeromonas veronii (A. veronii)
Assay: two-hybrid; bacterial two-hybrid in E. coli XL1-Blue MRF' with pBT and pTRG derivatives; SmpB with OmpA (Supplementary Figure 2)

B1: small protein B (SmpB) of Aeromonas veronii (protein, UniProt A0A0T6N165 1-162)
chain: MSKKNSKNKAGSSTIALNRTARHEYFIEEKIEAGLSLQGWEVKSLRAGKANISEAYVIFRDGEAYLFGSSFLPLQAASSHVVCDPTRTRKLLLSRRELDKLESLIARQGYTIVPLALYWKQCWVKVEIGLVKGKKEHDKREDTKAREWDREKARIMKNKHRG
Question: Which binding does the source give for B1 here?
Answer: no binding
